PMC7224567
These are yes or no findings as the source states them, for the method shown. In cells and extracts the contact can be indirect. Some results given as binding are weak or reduced against the parent protein; the word gives no strength.

Sequences of proteins named here, by UniProt entry; tags and fusion partners are left off.
UniProt P22366: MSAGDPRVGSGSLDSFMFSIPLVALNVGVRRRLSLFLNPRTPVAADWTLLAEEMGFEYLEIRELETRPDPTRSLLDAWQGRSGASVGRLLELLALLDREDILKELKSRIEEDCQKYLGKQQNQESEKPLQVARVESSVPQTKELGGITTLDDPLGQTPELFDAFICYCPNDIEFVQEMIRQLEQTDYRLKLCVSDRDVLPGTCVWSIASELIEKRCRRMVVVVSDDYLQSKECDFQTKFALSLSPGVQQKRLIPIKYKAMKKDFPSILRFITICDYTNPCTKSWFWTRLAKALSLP
UniProt Q6ZWS8: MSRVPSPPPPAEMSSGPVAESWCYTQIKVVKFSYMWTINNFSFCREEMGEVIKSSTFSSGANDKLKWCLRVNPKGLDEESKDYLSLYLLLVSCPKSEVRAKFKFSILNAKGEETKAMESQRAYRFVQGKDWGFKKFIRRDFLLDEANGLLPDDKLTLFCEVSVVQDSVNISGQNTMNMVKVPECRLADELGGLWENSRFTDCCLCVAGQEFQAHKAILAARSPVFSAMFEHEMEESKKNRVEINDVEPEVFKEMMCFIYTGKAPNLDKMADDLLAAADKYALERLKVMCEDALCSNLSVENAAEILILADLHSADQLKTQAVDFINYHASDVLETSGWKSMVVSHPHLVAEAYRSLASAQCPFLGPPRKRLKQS

Target: mouse MyD88 (mouse) (UniProt P22366)
Experiment: co-IP; CHO cells transfected with mouse MyD88 and SPOP; IP with anti-FLAG antibody

mouse SPOP (from UniProt Q6ZWS8 1-374)
binding: binds
